# The whole screen tested about 280,000 compounds, of which about 180 (0.064%) were called active. The inconclusive results got no clear call from the source; some entries with a clear call stand among them for comparison. Calls come from the whole dose curve; as a rule, active = well fitted inhibition curve with a large enough effect; inconclusive = small, poorly fitted or top-dose-only effect, or effect the other way; inactive = flat fitted curve, though single readings scatter. Where the call is inconclusive, the potency comes from a doubtful curve fit.
# Chains of the proteins cited; added tags and fusions are not shown. Lines headed by an entry give the natural chain unless they say otherwise; changes in a name come on top.
# UniProt P10828: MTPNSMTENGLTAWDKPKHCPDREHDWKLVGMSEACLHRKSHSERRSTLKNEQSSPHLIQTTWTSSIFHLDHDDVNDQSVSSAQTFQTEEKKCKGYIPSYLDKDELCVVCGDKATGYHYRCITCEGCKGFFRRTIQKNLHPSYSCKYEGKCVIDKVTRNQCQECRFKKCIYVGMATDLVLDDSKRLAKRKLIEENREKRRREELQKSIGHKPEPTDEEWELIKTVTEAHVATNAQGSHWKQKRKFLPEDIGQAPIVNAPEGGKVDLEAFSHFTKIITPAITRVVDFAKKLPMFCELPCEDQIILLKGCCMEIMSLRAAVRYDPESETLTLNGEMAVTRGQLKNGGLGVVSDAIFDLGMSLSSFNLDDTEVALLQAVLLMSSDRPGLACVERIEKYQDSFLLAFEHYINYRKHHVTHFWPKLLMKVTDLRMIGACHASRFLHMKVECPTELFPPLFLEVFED
# Target: Thyroid hormone receptor beta (Homo sapiens) (UniProt P10828)
# Assay: qHTS for Inhibitors of the Interaction of Thyroid Hormone Receptor and Steroid Receptor Coregulator 2; note: nearly all actives have a fitted effect of over 50% in size;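 for activity change, negative = inhibition: plate controls were bound peptide for no effect and peptide without receptor for full effect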
# Conditions: TRbeta-SRC2 peptide binding, fluorescence polarization, receptor liganded with 1 µM T3; series mostly up to 106 µM; activity change, negative = inhibition: at the top concentration
# How it was run: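 Binding of a 20-amino-acid Texas Red SRC2 peptide (20 nM) to TRb ligand-binding domain (0.6 uM) with agonist T3 at 1 uM was followed by fluorescence polarization after a 5 hr room-temperature incubation.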
# Potency is the fitted concentration of half-maximal effect.
SMILES,Potency,"activity change, negative = inhibition"
Cc1ccc(Cc2cnc(NC(=O)/C(C#N)=C/c3ccc(-c4cccc([N+](=O)[O-])c4)o3)s2)cc1,"inconclusive: 70.8 µM [inhibitor, single point]",–
CCCN1C(=O)C2(c3ccccc31)c1c(oc3ccc(F)cc3c1=O)C(=O)N2CCCOC(C)C (stereo not drawn),"inconclusive: 7.08 µM [activator, single point]",–
CN(C)c1ccc(/C=C/C=C2/SC(=S)N(c3ccccc3)C2=O)cc1,"inconclusive: 0.501 µM [activator, full curve, poor fit]",–
CCOc1cccc(CNc2ccc(O)cc2)c1OCc1ccc(Cl)cc1,active: 35.5 µM,–
CCOC(=O)/C=c1\s/c(=C(\C#N)C(=O)OCC)n(-c2ccccc2)c1=O,"inconclusive: 44.7 µM [activator, partial curve]",–
CCOc1ccc(NC(=O)CCc2nnc3n(C)c(=O)c4sccc4n23)cc1,–,inactive: 29.9% [at 53 µM]
COc1ccc2c(c1)C(C)=CC(C)(C)N2C(=O)Nc1ccccc1,"inconclusive: 70.8 µM [inhibitor, partial curve]",–
CC(C)Oc1ccc(C(=O)CCN2CCCCC2)cc1,"inconclusive: 39.8 µM [inhibitor, partial curve]",–
Oc1ccc2c(c1)OCC1(O)Cc3cc(O)c(O)cc3C21 (stereo not drawn),"inconclusive: 28.2 µM [inhibitor, full curve]",–
O=C(Nc1nc2ccc(Cl)cc2s1)c1ccc(N2CCCCC2)c([N+](=O)[O-])c1,"inconclusive: 39.8 µM [inhibitor, partial curve]",–
Cn1c(C(C#N)C2=C(Cl)C(=O)N(c3ccccc3)C2=O)nc2ccccc21 (stereo not drawn),active: 44.7 µM,–
Cc1c2c(c(O)c3c(O)cccc13)C(=O)O[C@H]2C1C(N(C)C)C(O)=C(C(N)=O)C(=O)[C@H]1O (stereo partly drawn),"inconclusive: 50.1 µM [activator, partial curve]",–
O=S(=O)(/N=C/c1c(O)ccc2ccccc12)c1cccs1,active: 28.2 µM,–
CC[n+]1ccc(/C=C/c2ccc(N(C)C)cc2)c2ccccc21,"inconclusive: 15.8 µM [activator, full curve]",–
Cc1ccc(OC(=S)Nc2ccc(O)cc2)cc1,"inconclusive: 31.6 µM [inhibitor, partial curve]",–
COc1ccccc1NC(=O)c1cc(C(=O)Nc2ccccc2OC)cc(N2C(=O)CCC2=O)c1,–,inactive: 2.46% [at 53 µM]
CCc1ccc2oc(-c3cc(NC(=O)c4cc(OC)c(OC)c(OC)c4)ccc3O)nc2c1,"inconclusive: 50.1 µM [inhibitor, partial curve]",–
CN1CCc2cc3c(c4c2C1CC41CCC(=NO)CC1)OCO3 (stereo not drawn),"inconclusive: 56.2 µM [inhibitor, partial curve]",–
CC1CCCCC1NC(=O)/C(C#N)=C/C=C/c1ccccc1[N+](=O)[O-] (stereo not drawn),active: 39.8 µM,–
COc1cc(C(c2c(C)[nH][nH]c2=O)c2c(C)[nH][nH]c2=O)ccc1OC(=O)c1ccccc1OC,"inconclusive: 14.1 µM [inhibitor, full curve]",–
CCc1cccc(C)c1NC(=O)CSc1nc2ccccc2nc1Cc1ccccc1,–,inactive: 4.72%
CCOc1ccccc1CNC(=O)CCCN1C(=O)COc2ccc(C)cc21,–,inactive: 0.0035%

SMILES,Potency,"activity change, negative = inhibition"
Oc1ccc(CNc2ccccc2O)cc1,"inconclusive: 56.2 µM [inhibitor, single point]",–
O=C(O)CCCCC1CCSS1 (stereo not drawn),"inconclusive: 28.2 µM [activator, full curve, poor fit]",–
CN(C)c1ccc(/C=N/NC(=O)c2cc(-c3ccc4c(c3)OCO4)n[nH]2)cc1,–,inactive: -2.4%
COc1cc(S(=O)(=O)n2cnc(C)c2)ccc1Br,–,inactive: 3.42%
Cc1cc2ccccc2n1CCNC(=O)C1CCCCC1,"inconclusive: 89.1 µM [inhibitor, partial curve]",–
O=C(Nc1cccc(C(F)(F)F)c1)c1ccc2nc(-c3ccco3)c(-c3ccco3)nc2c1,"inconclusive: 12.6 µM [activator, full curve]",–
CCCCCCCCCCCCCCSCC(=O)O,"inconclusive: 79.4 µM [activator, single point]",–
N#Cc1c(N)n(CCNC(=O)c2cccs2)c2nc3ccccc3nc12,"inconclusive: 50.1 µM [inhibitor, single point]",–
CC1(OC(=O)c2cnc3ccccc3n2)C(=O)C=C2C=C(C3CC3)OC=C2C1=O (stereo not drawn),–,inactive: -5.04%
O=c1cc(-c2ccccc2Cl)oc2c(NS(=O)(=O)c3cc(Cl)cc(Cl)c3O)ccc(O)c12,"inconclusive: 31.6 µM [activator, partial curve]",–
CCOC(=O)N1CCN(Cc2nc3cc(NC(=O)c4ccccc4[N+](=O)[O-])ccc3n2C(C)C)CC1,"inconclusive: 25.1 µM [activator, single point]",–
Oc1ccccc1/C=N/Nc1cc(N2CCCC2)nc(N2CCCC2)n1,"inconclusive: 31.6 µM [inhibitor, full curve, poor fit]",–
CCOc1ccc(S(=O)(=O)Nc2ccc3oc(C)c(C(=O)OC(C)C)c3c2)cc1,–,inactive: -0.607%
COc1ccc(-c2noc(N3CCC(C(=O)N4CCN(c5ccccc5F)CC4)CC3)n2)cc1,"inconclusive: 28.2 µM [activator, single point]",–
Cc1ccc(SCC(=O)N2c3ccccc3Sc3ccccc32)cc1,"inconclusive: 44.7 µM [inhibitor, partial curve]",–
COc1ccc(C2=CC3=C(Br)C(=O)C(C)(OC(=O)C4CCCC4)C(=O)C3=CO2)cc1 (stereo not drawn),"inconclusive: 44.7 µM [activator, partial curve]",–
COc1ccccc1CCn1c(N)c(C#N)c2nc3ccccc3nc21,"inconclusive: 79.4 µM [inhibitor, partial curve]",–
Cc1cccc(Cn2c(C(=O)OC(C)C)cc3c2ccn3C)c1,"inconclusive: 44.7 µM [inhibitor, partial curve]",–
CC(C)n1c(=S)[nH]c2cc(Cl)ccc21,"inconclusive: 50.1 µM [activator, partial curve]",–
Nc1nc2c(ncn2C2CC(O)C(CO)O2)c(=O)[nH]1 (stereo not drawn),–,inactive: 3.73%
COc1ccc(-c2[nH]c(-c3ccc(O)cc3)nc2-c2ccccc2)cc1,–,inactive: -8.2%

# 13 entries out of the list, sorted by molar mass, falling:
SMILES,Potency,"activity change, negative = inhibition"
O=c1cc(-c2ccccc2Cl)oc2c(NS(=O)(=O)c3cc(Cl)cc(Cl)c3O)ccc(O)c12,"inconclusive: 31.6 µM [activator, partial curve]",–
CCOC(=O)N1CCN(Cc2nc3cc(NC(=O)c4ccccc4[N+](=O)[O-])ccc3n2C(C)C)CC1,"inconclusive: 25.1 µM [activator, single point]",–
COc1ccc(-c2noc(N3CCC(C(=O)N4CCN(c5ccccc5F)CC4)CC3)n2)cc1,"inconclusive: 28.2 µM [activator, single point]",–
O=C(Nc1cccc(C(F)(F)F)c1)c1ccc2nc(-c3ccco3)c(-c3ccco3)nc2c1,"inconclusive: 12.6 µM [activator, full curve]",–
CCOc1ccc(S(=O)(=O)Nc2ccc3oc(C)c(C(=O)OC(C)C)c3c2)cc1,–,inactive: -0.607%
CC1(OC(=O)c2cnc3ccccc3n2)C(=O)C=C2C=C(C3CC3)OC=C2C1=O (stereo not drawn),–,inactive: -5.04%
CN(C)c1ccc(/C=N/NC(=O)c2cc(-c3ccc4c(c3)OCO4)n[nH]2)cc1,–,inactive: -2.4%
N#Cc1c(N)n(CCNC(=O)c2cccs2)c2nc3ccccc3nc12,"inconclusive: 50.1 µM [inhibitor, single point]",–
COc1ccc(-c2[nH]c(-c3ccc(O)cc3)nc2-c2ccccc2)cc1,–,inactive: -8.2%
Cc1cc2ccccc2n1CCNC(=O)C1CCCCC1,"inconclusive: 89.1 µM [inhibitor, partial curve]",–
CC(C)n1c(=S)[nH]c2cc(Cl)ccc21,"inconclusive: 50.1 µM [activator, partial curve]",–
Oc1ccc(CNc2ccccc2O)cc1,"inconclusive: 56.2 µM [inhibitor, single point]",–
O=C(O)CCCCC1CCSS1 (stereo not drawn),"inconclusive: 28.2 µM [activator, full curve, poor fit]",–

# Reference: PubChem BioAssay AID1469 (National Center for Advancing Translational Sciences (NCATS), 2008)
